According to PubChem BioAssay AID2685 (National Center for Advancing Translational Sciences (NCATS), 2010):
The campaign covered roughly 320,000 compounds. About 2,100 (0.66%) were called active. Inconclusive results, whose numbers are uncertain, are shown with a selection of clear calls. Calls come from the whole dose curve; as a rule, active = well fitted inhibition curve with a large enough effect in the signal ratio, with a control signal flat (not every such curve was filed as active); inconclusive = small, poorly fitted or top-dose-only effect, or effect the other way, or a change in a side signal; inactive = flat fitted curve, though single readings scatter; the % refers to the signal ratio. Where the call is inconclusive, the potency comes from a doubtful curve fit.
% is set by controls: 0 for no effect and ±100 for the full control effect; potency is the fitted concentration of half-maximal effect.

Experiment: qHTS Assay for Lipid Storage Modulators in Drosophila S3 Cells
Conditions: BODIPY lipid droplet fluorescence, 18-24 h, cells fed with added oleic acid; lipid storage change, negative = inhibition: at 46.1 µM (top of the series) unless noted
Outline: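 Drosophila S3 cells got compounds at several concentrations plus oleic acid (400 uM solution). Laser-scanning cytometry with 488 nm excitation read lipid droplets at 500-530 nm and cells at 575-640 nm. Percent activity was relative to 20 uM Triacsin C.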
For `O=C(NCC1CCCO1)C1CCN(C(=O)c2ccc(Cl)cc2)CC1` (stereo not drawn), the Potency was inconclusive: 29.1 µM [cytotoxic, single point]. For `COc1cccc2cc(-c3cc(=O)oc4cc(C)c(OCC(C)=O)cc34)oc12`, the lipid storage change, negative = inhibition was inconclusive: -14.8%. For `CCC(CO)NC1=CC(=O)CCC1` (stereo not drawn), the lipid storage change, negative = inhibition was inconclusive: -14.8%. In the case of `CC(CN1CCCCC1)OC(=O)c1ccco1` (stereo not drawn), the lipid storage change, negative = inhibition is reported as inconclusive: 5.4%. In the case of `COc1ccc(/C=C(/NC(=O)c2ccccc2)c2nc3ccc(Cl)cc3[nH]2)cc1OC`, the lipid storage change, negative = inhibition is reported as inconclusive: -121%. With `COc1ccc(N2CCN(CCCNC(=S)Nc3c(C)cccc3C)CC2)cc1` the lipid storage change, negative = inhibition was inconclusive: 2.71%. With `Cc1ccc(C(=O)COC(=O)CCC(=O)NC2CCCCC2)cc1C` the lipid storage change, negative = inhibition was inconclusive: -1.07%. For `O=C1CCC([N+](=O)[O-])C(c2ccccc2Cl)N1` (stereo not drawn), the lipid storage change, negative = inhibition was inconclusive: -58.9%. For `Cc1nc2ccc(NC3=NCCCCC3)cc2s1`, the Potency was inconclusive: 1.46 µM [falling, full curve]. In the case of `CC(C)CNC(=S)NC(=O)c1ccc(Cl)cc1`, the lipid storage change, negative = inhibition is reported as inconclusive: 14.1%. For `COc1ccc(NS(=O)(=O)c2ccc(OCC(=O)N3CCOCC3)cc2)cc1`, the lipid storage change, negative = inhibition was inconclusive: 16.5%. For `O=C(N/N=C/c1ccsc1)c1cc(-c2cccs2)nc2ccccc12`, the lipid storage change, negative = inhibition was inconclusive: 33.4%. For `Cn1nc(-c2ccccc2)cc1NC(=O)Nc1ccc(C(C)(C)C)cc1`, the lipid storage change, negative = inhibition was inconclusive: -27.1%. In the case of `CCOC(=O)c1cc(-c2cc(OC)c(OC)c(OC)c2)nc2c1c(=O)[nH]c(=O)n2Cc1ccccc1`, the lipid storage change, negative = inhibition is reported as inconclusive: 18.5%. For `COc1ccc(/C=C2\SC(=S)N(N3C(=O)CCC3=O)C2=O)cc1O`, the lipid storage change, negative = inhibition was inconclusive: -26.8%. In the case of `CCOC(=O)Nc1sc2c(c1C#N)CCCC2`, the lipid storage change, negative = inhibition is reported as inconclusive: 6.88%. For `Cc1ccc(-c2nn3c(C)nnc3s2)cc1NC(=O)c1cccs1`, the Potency was inconclusive: 0.116 µM [activator, full curve, poor fit]. With `Cc1[nH]c2ccccc2c1/C=N\NC(=O)c1ccco1` the Potency was inconclusive: 25.9 µM [falling, single point]. In the case of `CCOc1ccc(N(CC(=O)N/N=C/c2ccc(OC(C)C)cc2)S(C)(=O)=O)cc1`, the lipid storage change, negative = inhibition is reported as inconclusive: 22.5%. For `O=S1OCCN1c1ccccc1` (stereo not drawn), the lipid storage change, negative = inhibition was inconclusive: 56.9%. For `N#Cc1ccccc1Cn1c(-c2cscn2)nc2ccccc21`, the Potency was inconclusive: 0.058 µM [activator, full curve, poor fit]. In the case of `Cc1cc2cc(CNC(=O)Cc3cccs3)ccc2n1C`, the lipid storage change, negative = inhibition is reported as inconclusive: 20.8%. In the case of `CCCCc1cc(=O)oc2cc(OC(C)C(=O)NCCN3CCOCC3)c(Cl)cc12` (stereo not drawn), the Potency is reported as inconclusive: 4.11 µM [falling, partial curve, poor fit]. In the case of `COc1cccc(C2=NOC(C(=O)NCc3cccnc3)C2)c1` (stereo not drawn), the lipid storage change, negative = inhibition is reported as inconclusive: -53.5%. For `O=C(C1CCC(CNS(=O)(=O)c2ccccc2)CC1)N1CCOCC1` (stereo not drawn), the lipid storage change, negative = inhibition was inconclusive: -1.67%. With `COCc1cc(=O)n2[nH]c(C)c(-c3ccccc3)c2n1` the lipid storage change, negative = inhibition was inconclusive: -36.5%. For `CC(C)C[C@H](NC(=O)N1CCn2c1nc1ccccc12)C(=O)NC1CCCCC1`, the lipid storage change, negative = inhibition was inconclusive: -7.78%. For `CC1=NN(CCC#N)C(=O)/C1=C/c1ccc(N(C)C)cc1`, the lipid storage change, negative = inhibition was inconclusive: 9.02%. With `Cn1ncc(Cl)c1C(=O)N1CCC(Cc2ccccc2)CC1` the lipid storage change, negative = inhibition was inconclusive: 22.8%. For `CCc1ccc(C(C(=O)NC2CCCC2)N(CCOC)C(=O)CCC(=O)Nc2cc(C)on2)cc1` (stereo not drawn), the lipid storage change, negative = inhibition was inconclusive: 221%. For `COc1ccc(N2C(=O)CCC(C(=O)NCc3ccccn3)C2c2ccc(OC)c(OC)c2)cc1` (stereo not drawn), the lipid storage change, negative = inhibition was inconclusive: 23.4%. For `Cc1ccc(-c2cc(C(=O)N3CCN(c4ncccn4)CC3)c3cc(Br)ccc3n2)o1`, the lipid storage change, negative = inhibition was inconclusive: 38.9%. For `Cc1ccc(SC(C)C(=O)Nc2ccccc2-c2ccccc2)cc1` (stereo not drawn), the lipid storage change, negative = inhibition was inconclusive: -32.8%. In the case of `Cc1cc(=O)n(C)c(=O)n1CCCCCCOc1ccc([N+](=O)[O-])cc1`, the lipid storage change, negative = inhibition is reported as inconclusive: 16.6%. For `CCOC(=O)c1c(/N=C/N(C)C)sc(/C=N/Nc2ccccc2)c1-c1ccccc1`, the Potency was inconclusive: 29.1 µM [rising, single point]. For `Cc1ccc(S(=O)(=O)N2CCC(C(=O)NC3CCCC3)CC2)cc1Cl`, the Potency was inconclusive: 0.326 µM [falling, single point]. With `Cc1nnc(-c2cnn(C)c2N)n1Cc1ccccc1` the lipid storage change, negative = inhibition was inconclusive: -10%. With `COc1ccccc1C(C)NCC(=O)NCC(=O)Nc1ccc(F)c(F)c1F` (stereo not drawn) the lipid storage change, negative = inhibition was inconclusive: 72.5%. In the case of `Cc1cc(C)n2cc(CSc3nncn3C)nc2n1`, the lipid storage change, negative = inhibition is reported as inconclusive: -29.8%. For `C[C@@]12C(=O)N(CC3CC3)CC(=O)N1[C@H](/C=C/c1ccccc1)[C@@H]1C(=O)N(c3ccccc3)C(=O)[C@@H]12`, the Potency was inconclusive: 23.1 µM [falling, single point]. In the case of `COc1ccc(CNC(=O)/C=C/C(=O)O)cc1OC`, the lipid storage change, negative = inhibition is reported as inconclusive: 0.624%. For `Cc1ccc(NC(=S)N(Cc2cccs2)Cc2cc3cccc(C)c3[nH]c2=O)cc1`, the lipid storage change, negative = inhibition was inconclusive: 24.1%. For `COC(=O)c1cc(OC)c(OC)cc1NC(=S)N1CCCC(CO)C1` (stereo not drawn), the lipid storage change, negative = inhibition was inconclusive: -102%. With `O=C(NNC(=O)c1ccccc1O)c1ccc(Cl)c(S(=O)(=O)N2CCCCC2)c1` the lipid storage change, negative = inhibition was “inconclusive”. In the case of `O=C(NCCOc1nc(N2CCOCC2)nc(N2CCOCC2)n1)Nc1ccccc1`, the lipid storage change, negative = inhibition is reported as “inactive”. With `Cc1nc(SCC(=O)c2ccc(Cl)s2)c2oc3ccccc3c2n1` the lipid storage change, negative = inhibition was inconclusive: 30.2%. In the case of `O=C(Nc1cccc(S(=O)(=O)N2CCCCC2)c1)c1ccc(S(=O)(=O)C(F)F)cc1`, the Potency is reported as inconclusive: 0.0046 µM [rising, full curve, poor fit]. In the case of `C/C(N)=C(/C#N)C(=O)CSc1nc2scc(-c3ccccc3)c2c(=O)n1C`, the lipid storage change, negative = inhibition is reported as inconclusive: 20.7%. In the case of `Cc1ccccc1N1CCN(S(=O)(=O)c2nnc(NC(=O)c3ccco3)s2)CC1`, the lipid storage change, negative = inhibition is reported as inconclusive: 65.3%. With `O=C(CSc1nnc(-c2ccco2)n1-c1ccccc1)NCc1ccc2c(c1)OCO2` the Potency was inconclusive: 0.0052 µM [falling, full curve, poor fit]. In the case of `Cc1ccc(C(C)C)c(OCCCCCN2CCOCC2)c1`, the lipid storage change, negative = inhibition is reported as inconclusive: -8.65%. For `O=C(NCc1ccco1)c1sc(=S)n2c1[nH]c(=O)c1ccccc12`, the lipid storage change, negative = inhibition was inconclusive: -16.4%. With `Cc1ccccc1OCCNC(=O)CSc1ccc(C(F)(F)F)cc1[N+](=O)[O-]` the lipid storage change, negative = inhibition was inconclusive: 2.54%. With `CC(=O)Nc1cccc(OCC(=O)Nc2cccc(S(=O)(=O)N3CCCC3)c2)c1` the lipid storage change, negative = inhibition was “inconclusive”. In the case of `CCCNC(=O)c1ccc(N2CC3CC(C2)c2cccc(=O)n2C3)c(NC(=O)Nc2ccc(CC)cc2)c1` (stereo not drawn), the lipid storage change, negative = inhibition is reported as inconclusive: 26.3%. For `CN1CCC(N(C)CC(O)c2ccccc2)CC1` (stereo not drawn), the lipid storage change, negative = inhibition was “inactive”. In the case of `CC(OC(=O)c1ccccc1NCCO)C(=O)NC1CCCCC1C` (stereo not drawn), the lipid storage change, negative = inhibition is reported as “inconclusive”. With `Cc1nn(C)c(Cl)c1CN1CCN(C2CCCC2)C(CCO)C1` (stereo not drawn) the Potency was inconclusive: 25.9 µM [activator, single point]. With `CSC(=Nc1ccc(Cl)cc1)N[n+]1ccccc1` the Potency was inconclusive: 0.103 µM [falling, full curve, poor fit]. For `CC1CC(C)CN(C(=O)C2CCN(S(=O)(=O)N3CCC4(CC3)OCCO4)CC2)C1` (stereo not drawn), the lipid storage change, negative = inhibition was inconclusive: -24.6%. For `COc1cccc(-n2c(=O)c3ccccc3n(CC(=O)NCC3CCCO3)c2=O)c1` (stereo not drawn), the lipid storage change, negative = inhibition was inconclusive: 32.3%. In the case of `Cc1cccc(C2=NC(C(F)(F)F)(C(F)(F)F)c3c(n(-c4ccc(F)cc4)c(=O)[nH]c3=O)N2)c1`, the lipid storage change, negative = inhibition is reported as inconclusive: 45.8%. For `Cc1cccc2c1N(C(=O)c1ccco1)C(C)(C)c1ssc(=S)c1-2`, the lipid storage change, negative = inhibition was inconclusive: -2.13%. With `CCn1c(CNC(=O)C23CC4CC(CC(C4)C2)C3)nnc1SCC(=O)Nc1nnc(C)s1` the Potency was inconclusive: 20.6 µM [activator, single point]. For `Cc1nnc(SCCN2CCOCC2)n1-c1cccc(Cl)c1`, the Potency was inconclusive: 0.461 µM [falling, partial curve, poor fit]. With `COc1ccccc1CNS(=O)(=O)CC12CCC(CC1=O)C2(C)C` (stereo not drawn) the Potency was inconclusive: 8.2 µM [activator, partial curve]. For `CN1CCC(N(C)C(=O)CCc2nc3ccccc3c(=O)[nH]2)CC1`, the lipid storage change, negative = inhibition was inconclusive: -23.7%. In the case of `CCn1c2ccccc2c2cc(/C=N/NC(=O)c3cccc(C)c3)ccc21`, the Potency is reported as inconclusive: 0.651 µM [activator, full curve, poor fit]. For `COc1ccc(N2CC(C(=O)Nc3nnc(Cc4ccccc4)s3)CC2=O)cc1` (stereo not drawn), the lipid storage change, negative = inhibition was inconclusive: 152%. In the case of `COCCCNC(=O)Cn1ccc(NC(=O)OCc2ccccc2)nc1=O`, the Potency is reported as inconclusive: 29.1 µM [activator, single point]. With `CCn1nc(C)c(/C=N/NC(=O)Cn2nc(C)cc2C)c1C` the Potency was inconclusive: 5.17 µM [rising, full curve]. In the case of `Cc1ccc(CNC(=O)c2ccc3c(=O)n(CCCN4CCCC4=O)c(=S)[nH]c3c2)cc1`, the Potency is reported as inconclusive: 18.4 µM [rising, single point]. For `O=C(CSc1ccc(Cl)cc1)Nc1ccc(NC(=O)c2ccco2)cc1`, the lipid storage change, negative = inhibition was inconclusive: 45.7%. For `Brc1ccc2ncnc(NCc3ccccc3)c2c1`, the Potency was inconclusive: 6.51 µM [activator, single point]. With `CCC(C)(NC=O)C(=O)Nc1c(C)cccc1C` (stereo not drawn) the lipid storage change, negative = inhibition was inconclusive: 12.1%. For `COc1cccc(CN(C)C(=O)c2cc(-c3ccc(F)cc3)nc3ccccc23)c1`, the Potency was inconclusive: 29.1 µM [falling, single point]. For `CCOC(=O)C1(Cc2ccc(Cl)cc2)CCN(C(=O)c2cscn2)CC1`, the lipid storage change, negative = inhibition was inconclusive: 27.4%. In the case of `COCc1cc(N2CCOCC2)nc(SCc2ccc(Cl)cc2)n1`, the lipid storage change, negative = inhibition is reported as inconclusive: 11.8%.
